From article PMC5490268
No constants are given. Whether binding was seen depends on the method and setting. In cells and extracts the contact can be indirect. Where a sequence is shown, tags or fusion partners need not be part of it.

Amino acid sequences for entries named in this document (tags omitted).
UniProt P97926: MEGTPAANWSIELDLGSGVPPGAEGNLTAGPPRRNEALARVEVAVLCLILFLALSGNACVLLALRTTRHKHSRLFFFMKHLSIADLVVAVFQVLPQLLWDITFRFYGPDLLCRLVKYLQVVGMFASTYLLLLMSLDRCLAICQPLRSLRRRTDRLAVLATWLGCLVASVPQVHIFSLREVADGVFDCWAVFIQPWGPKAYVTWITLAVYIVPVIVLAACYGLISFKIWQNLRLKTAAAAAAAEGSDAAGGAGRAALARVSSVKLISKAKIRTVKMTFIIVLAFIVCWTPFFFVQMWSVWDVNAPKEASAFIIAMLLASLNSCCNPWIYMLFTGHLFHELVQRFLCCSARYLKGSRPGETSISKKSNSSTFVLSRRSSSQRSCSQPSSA

Molecular target: Myc-tagged oxytocin receptor (OTR) (UniProt P97926)
Assay: co-IP; HEK293T cells transfected with pcDNA3 HA-A1R and Myc-OTR plasmids; lysates incubated with 2 ug non-immune IgG, anti-HA or anti-Myc antibody, protein A/G-agarose; western blot with anti-Myc or anti-HA

B1: HA-tagged mouse adenosine receptor A1R (receptor, UniProt Q60612 1-326)
chain: MPPYISAFQAAYIGIEVLIALVSVPGNVLVIWAVKVNQALRDATFCFIVSLAVADVAVGALVIPLAILINIGPQTYFHTCLMVACPVLILTQSSILALLAIAVDRYLRVKIPLRYKTVVTQRRAAVAIAGCWILSLVVGLTPMFGWNNLSEVEQAWIANGSVGEPVIKCEFEKVISMEYMVYFNFFVWVLPPLLLMVLIYLEVFYLIRKQLNKKVSASSGDPQKYYGKELKIAKSLALILFLFALSWLPLHILNCITLFCPTCQKPSILIYIAIFLTHGNSAMNPIVYAFRIHKFRVTFLKIWNDHFRCQPKPPIEEDIPEEKADD
**Q.** How did the binding turn out when B1 was run?
**A.** The binding was “no binding”.
